Data: patent US20140255407A1 (MacroGenics, published 2014)
These are yes or no findings as the source states them, for the method shown. Some results given as binding are weak or reduced against the parent protein; the word gives no strength.

Biological target: T1, feline B7-H3 in feline tumor tissue (feline)
T1 sequence: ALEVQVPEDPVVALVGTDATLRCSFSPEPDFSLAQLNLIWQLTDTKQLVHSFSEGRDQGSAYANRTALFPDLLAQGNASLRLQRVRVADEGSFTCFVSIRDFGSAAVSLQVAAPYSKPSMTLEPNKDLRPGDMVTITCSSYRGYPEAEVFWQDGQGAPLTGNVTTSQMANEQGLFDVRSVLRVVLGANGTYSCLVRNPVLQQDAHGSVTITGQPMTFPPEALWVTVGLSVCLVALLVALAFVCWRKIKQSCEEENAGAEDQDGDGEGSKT
Experiment: IHC on feline tumor tissue

B1: BRCA69D (anti-B7-H3 monoclonal antibody) (antibody, V domains shown)
VH: QVQLQQSGAELARPGASVKLSCKASGYTFTSYWMQWVKQRPGQGLEWIGTIYPGDGDTRYTQKFKGKATLTADKSSSTAYMQLSSLASEDSAVYYCARRGIPRLWYFDVWGAGTTVTVSS
VL: DIQMTQTTSSLSASLGDRVTISCRASQDISNYLNWYQQKPDGTVKLLIYYTSRLHSGVPSRFSGSGSGTDYSLTIDNLEQEDIATYFCQQGNTLPPTFGGGTKLEIK
- binding: binds
